The values below come from paper doi:10.1101/2023.07.26.549647.

This test addresses T1, FLAG-BirA*-TBCCD1 (human TBCC domain-containing protein 1) (human) (UniProt Q9NVR7).
T1 sequence: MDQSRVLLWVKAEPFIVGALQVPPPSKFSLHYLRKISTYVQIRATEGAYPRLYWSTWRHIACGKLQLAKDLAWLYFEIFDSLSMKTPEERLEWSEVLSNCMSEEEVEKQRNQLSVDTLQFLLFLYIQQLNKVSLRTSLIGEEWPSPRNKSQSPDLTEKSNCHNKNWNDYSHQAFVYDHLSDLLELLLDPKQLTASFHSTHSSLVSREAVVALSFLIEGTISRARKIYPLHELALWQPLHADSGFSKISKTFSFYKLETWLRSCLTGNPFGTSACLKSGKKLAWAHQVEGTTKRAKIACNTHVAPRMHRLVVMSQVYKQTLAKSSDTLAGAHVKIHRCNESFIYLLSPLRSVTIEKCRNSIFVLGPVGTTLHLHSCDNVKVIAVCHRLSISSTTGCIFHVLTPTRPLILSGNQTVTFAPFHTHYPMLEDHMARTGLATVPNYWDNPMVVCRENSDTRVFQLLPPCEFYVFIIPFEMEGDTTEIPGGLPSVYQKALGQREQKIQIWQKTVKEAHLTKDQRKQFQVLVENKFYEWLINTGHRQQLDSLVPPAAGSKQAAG
The experiment in a line: proximity labelling.

These are yes or no findings as the source states them, for the method shown. In cells and extracts the contact can be indirect. A yes stands for co-enrichment or nearness to the bait. Other partners may have been found. Where a sequence is shown, tags or fusion partners need not be part of it.

B1: CEP90/PIBF1 (protein, UniProt Q8WXW3 1-757)
chain: MSRKISKESKKVNISSSLESEDISLETTVPTDDISSSEEREGKVRITRQLIERKELLHNIQLLKIELSQKTMMIDNLKVDYLTKIEELEEKLNDALHQKQLLTLRLDNQLAFQQKDASKYQELMKQEMETILLRQKQLEETNLQLREKAGDVRRNLRDFELTEEQYIKLKAFPEDQLSIPEYVSVRFYELVNPLRKEICELQVKKNILAEELSTNKNQLKQLTETYEEDRKNYSEVQIRCQRLALELADTKQLIQQGDYRQENYDKVKSERDALEQEVIELRRKHEILEASHMIQTKERSELSKEVVTLEQTVTLLQKDKEYLNRQNMELSVRCAHEEDRLERLQAQLEESKKAREEMYEKYVASRDHYKTEYENKLHDELEQIRLKTNQEIDQLRNASREMYERENRNLREARDNAVAEKERAVMAEKDALEKHDQLLDRYRELQLSTESKVTEFLHQSKLKSFESERVQLLQEETARNLTQCQLECEKYQKKLEVLTKEFYSLQASSEKRITELQAQNSEHQARLDIYEKLEKELDEIIMQTAEIENEDEAERVLFSYGYGANVPTTAKRRLKQSVHLARRVLQLEKQNSLILKDLEHRKDQVTQLSQELDRANSLLNQTQQPYRYLIESVRQRDSKIDSLTESIAQLEKDVSNLNKEKSALLQTKNQMALDLEQLLNHREELAAMKQILVKMHSKHSENSLLLTKTEPKHVTENQKSKTLNVPKEHEDNIFTPKPTLFTKKEAPEWSKKQKMKT
B1: the binding result is listed as “binds”.

B2: MPHOSPH9 (protein, UniProt Q99550 1-1183)
chain: MEEFDLVKTLHKTSSSVGSDENSLHSLGLNLNTDRSSPHLSTNGVSSFSGKTRPSVIQGTVEVLTSLMQELQNSGKTDSELWKNCETRWLQLFNLVEKQCQEQIVAQQEQFHNQIQHIQEEIKNLVKLQTSSASLASCEGNSSNKQVSSESQMGFFSLSSERNESVIHYPESTEPEIQQEMSTSQPDCNVDSCSVSSGYGTFCISELNLYKSKDPKEFMEHIDVPKGQYVAPAVPAESLVDGVKNENFYIQTPEECHVSLKEDVSISPGEFEHNFLGENKVSEVYSGKTNSNAITSWAQKLKQNQPKRAHVEDGGSRSKQGNEQSKKTPIEKSDFAAATHPRAFYLSKPDETPNAWMSDSGTGLTYWKLEEKDMHHSLPETLEKTFISLSSTDVSPNQSNTSNEMKLPSLKDIYYKKQRENKQLPERNLTSASNPNHPPEVLTLDPTLHMKPKQQISGIQPHGLPNALDDRISFSPDSVLEPSMSSPSDIDSFSQASNVTSQLPGFPKYPSHTKASPVDSWKNQTFQNESRTSSTFPSVYTITSNDISVNTVDEENTVMVASASVSQSQLPGTANSVPECISLTSLEDPVILSKIRQNLKEKHARHIADLRAYYESEINSLKQKLEAKEISGVEDWKITNQILVDRCGQLDSALHEATSRVRTLENKNNLLEIEVNDLRERFSAASSASKILQERIEEMRTSSKEKDNTIIRLKSRLQDLEEAFENAYKLSDDKEAQLKQENKMFQDLLGEYESLGKEHRRVKDALNTTENKLLDAYTQISDLKRMISKLEAQVKQVEHENMLSLRHNSRIHVRPSRANTLATSDVSRRKWLIPGAEYSIFTGQPLDTQDSNVDNQLEETCSLGHRSPLEKDSSPGSSSTSLLIKKQRETSDTPIMRALKELDEGKIFKNWGTQTEKEDTSNINPRQTETSVNASRSPEKCAQQRQKRLNSASQRSSSLPPSNRKSSTPTKREIMLTPVTVAYSPKRSPKENLSPGFSHLLSKNESSPIRFDILLDDLDTVPVSTLQRTNPRKQLQFLPLDDSEEKTYSEKATDNHVNHSSCPEPVPNGVKKVSVRTAWEKNKSVSYEQCKPVSVTPQGNDFEYTAKIRTLAETERFFDELTKEKDQIEAALSRMPSPGGRITLQTRLNQEALEDRLERINRELGSVRMTLKKFHVLRTSANL
In the case of B2, the binding entry is “binds”.
